# Measurements reported in the supplement of paper PMC6411743.
# ± gives the standard deviation of the averaged measurements. The entries are a selection whose mix differs from that of the whole data set.
# Assays:
# Assay in all cases: NP40-soluble protein abundance relative to vehicle (solubility fold change) (ratio); higher = more soluble protein in presence of AMP-PNP
# [1] = molecular target: T1, USP38 (UniProt Q8NB14)
# T1 sequence (whole entry): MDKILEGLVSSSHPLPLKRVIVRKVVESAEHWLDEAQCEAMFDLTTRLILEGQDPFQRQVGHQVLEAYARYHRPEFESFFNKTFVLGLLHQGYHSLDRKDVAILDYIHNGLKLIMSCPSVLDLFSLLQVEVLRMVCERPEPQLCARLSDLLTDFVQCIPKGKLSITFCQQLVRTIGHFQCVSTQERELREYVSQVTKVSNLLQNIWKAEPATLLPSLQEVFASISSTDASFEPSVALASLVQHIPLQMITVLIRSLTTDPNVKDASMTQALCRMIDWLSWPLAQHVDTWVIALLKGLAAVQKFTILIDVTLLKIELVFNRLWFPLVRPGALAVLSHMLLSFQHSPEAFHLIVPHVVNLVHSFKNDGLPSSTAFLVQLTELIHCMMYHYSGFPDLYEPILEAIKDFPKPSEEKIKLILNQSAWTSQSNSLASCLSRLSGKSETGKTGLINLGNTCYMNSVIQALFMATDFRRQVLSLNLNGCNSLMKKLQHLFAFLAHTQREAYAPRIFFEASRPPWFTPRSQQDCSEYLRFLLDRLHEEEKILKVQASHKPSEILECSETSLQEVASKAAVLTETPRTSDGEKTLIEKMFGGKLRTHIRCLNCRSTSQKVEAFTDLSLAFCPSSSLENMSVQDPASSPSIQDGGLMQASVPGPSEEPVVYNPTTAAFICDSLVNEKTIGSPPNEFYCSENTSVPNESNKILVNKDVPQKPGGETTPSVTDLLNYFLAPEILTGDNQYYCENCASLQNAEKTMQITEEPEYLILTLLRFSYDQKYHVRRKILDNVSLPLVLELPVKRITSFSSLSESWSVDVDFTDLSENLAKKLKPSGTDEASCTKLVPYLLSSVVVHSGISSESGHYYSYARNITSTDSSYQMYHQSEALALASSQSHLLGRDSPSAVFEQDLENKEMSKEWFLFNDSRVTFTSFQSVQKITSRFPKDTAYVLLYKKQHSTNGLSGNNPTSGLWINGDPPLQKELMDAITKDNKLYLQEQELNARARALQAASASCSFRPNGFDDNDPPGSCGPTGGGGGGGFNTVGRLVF
# How it was run: (§1)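 Jurkat crude lysate (Dounce-homogenised) was treated with eight concentrations from 0.1 to 10 mM for 10 min at room temperature, then 3 min at 37 °C. It was solubilised with 0.8% NP40 and benzonase (60 min, 4 °C) and ultracentrifuged, and the supernatant was TMT-labelled for LC-MS/MS. Intensities were vsn-normalised, and the value is the fold change against the NP40-processed vehicle per replicate, from three independent experiments.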
# [2] = molecular target: T2, UniProt Q86TB9 and related entries
# T2 sequence (whole entry): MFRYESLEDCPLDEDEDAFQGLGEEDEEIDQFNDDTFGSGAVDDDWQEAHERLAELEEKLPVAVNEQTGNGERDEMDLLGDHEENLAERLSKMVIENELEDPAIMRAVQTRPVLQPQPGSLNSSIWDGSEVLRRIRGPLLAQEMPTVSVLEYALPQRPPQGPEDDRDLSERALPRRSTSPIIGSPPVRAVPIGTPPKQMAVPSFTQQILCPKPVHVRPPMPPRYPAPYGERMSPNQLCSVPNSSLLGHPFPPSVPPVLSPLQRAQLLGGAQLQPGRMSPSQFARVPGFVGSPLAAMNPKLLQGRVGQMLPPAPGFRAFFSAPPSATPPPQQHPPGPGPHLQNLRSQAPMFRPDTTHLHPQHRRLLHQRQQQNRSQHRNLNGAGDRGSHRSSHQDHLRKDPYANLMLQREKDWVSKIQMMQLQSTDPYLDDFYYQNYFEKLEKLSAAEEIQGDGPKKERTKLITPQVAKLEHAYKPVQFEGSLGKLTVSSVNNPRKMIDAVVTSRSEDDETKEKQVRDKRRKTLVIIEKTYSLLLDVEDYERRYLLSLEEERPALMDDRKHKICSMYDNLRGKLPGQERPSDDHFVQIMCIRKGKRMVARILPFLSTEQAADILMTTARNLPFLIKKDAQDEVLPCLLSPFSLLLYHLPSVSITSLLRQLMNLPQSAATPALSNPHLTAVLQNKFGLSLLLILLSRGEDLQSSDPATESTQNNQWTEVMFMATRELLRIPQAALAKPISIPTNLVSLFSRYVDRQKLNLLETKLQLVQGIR
# How it was run: as §1
# [3] = molecular target: T3, UniProt Q86WA6 and related entries
# T3 sequence (whole entry): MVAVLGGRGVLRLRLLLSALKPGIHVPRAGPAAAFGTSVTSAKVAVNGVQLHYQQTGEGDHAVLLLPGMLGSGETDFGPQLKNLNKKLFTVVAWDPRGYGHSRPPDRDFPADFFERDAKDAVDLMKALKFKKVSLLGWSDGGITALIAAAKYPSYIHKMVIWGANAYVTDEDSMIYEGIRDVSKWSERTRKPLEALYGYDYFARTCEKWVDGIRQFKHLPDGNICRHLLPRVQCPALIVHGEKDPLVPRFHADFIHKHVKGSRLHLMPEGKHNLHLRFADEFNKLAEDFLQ
# How it was run: as §1
# [4] = molecular target: T4, UniProt Q86X53 and related entries
# T4 sequence (whole entry): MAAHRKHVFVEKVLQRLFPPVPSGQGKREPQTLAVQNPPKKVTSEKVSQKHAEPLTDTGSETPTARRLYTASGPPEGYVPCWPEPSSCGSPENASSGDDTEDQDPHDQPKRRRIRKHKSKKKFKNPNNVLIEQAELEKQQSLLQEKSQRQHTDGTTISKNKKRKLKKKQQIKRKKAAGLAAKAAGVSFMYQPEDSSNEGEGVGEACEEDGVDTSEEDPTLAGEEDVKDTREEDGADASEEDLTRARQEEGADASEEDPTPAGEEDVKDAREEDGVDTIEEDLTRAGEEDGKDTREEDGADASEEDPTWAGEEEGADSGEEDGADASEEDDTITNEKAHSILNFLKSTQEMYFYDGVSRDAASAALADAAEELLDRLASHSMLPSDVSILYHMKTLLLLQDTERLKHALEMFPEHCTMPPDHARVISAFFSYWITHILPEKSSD
# How it was run: as §1
# [5] = molecular target: T5, UniProt Q86YP4-2|Q86YP4-3|Q86YP4
# T5 sequence (whole entry): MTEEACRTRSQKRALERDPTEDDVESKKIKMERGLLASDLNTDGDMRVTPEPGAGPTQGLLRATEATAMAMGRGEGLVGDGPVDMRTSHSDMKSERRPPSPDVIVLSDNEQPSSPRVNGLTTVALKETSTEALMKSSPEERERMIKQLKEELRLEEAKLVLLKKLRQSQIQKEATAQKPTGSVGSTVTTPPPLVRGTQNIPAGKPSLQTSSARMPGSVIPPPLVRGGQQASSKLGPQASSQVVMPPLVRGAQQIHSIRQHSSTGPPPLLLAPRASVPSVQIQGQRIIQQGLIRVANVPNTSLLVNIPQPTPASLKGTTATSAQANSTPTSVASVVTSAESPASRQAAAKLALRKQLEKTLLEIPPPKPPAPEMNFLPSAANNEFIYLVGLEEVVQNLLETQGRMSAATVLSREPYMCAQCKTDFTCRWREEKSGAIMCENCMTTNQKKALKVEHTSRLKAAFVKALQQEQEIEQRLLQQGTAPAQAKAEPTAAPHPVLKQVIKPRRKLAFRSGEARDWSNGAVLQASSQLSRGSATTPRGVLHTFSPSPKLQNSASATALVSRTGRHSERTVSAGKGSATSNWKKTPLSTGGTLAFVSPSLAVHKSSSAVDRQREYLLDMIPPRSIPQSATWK
# How it was run: as §1
smiles,measurement,setting,value
Nc1ncnc2c1ncn2[C@@H]1O[C@H](COP(=O)(O)OP(=O)(O)NP(=O)(O)O)[C@@H](O)[C@H]1O [adenylyl imidodiphosphate],NP40-soluble protein abundance,[1]; concentration: 1mM,1.03 ± 0.022
same,NP40-soluble protein abundance,[1]; concentration: 2mM,0.998 ± 0.03
same,NP40-soluble protein abundance,[1]; concentration: 4mM,1 ± 0.012
same,NP40-soluble protein abundance,[1]; concentration: 6mM,1.01 ± 0.038
same,NP40-soluble protein abundance,[1]; concentration: 8mM,1.02 ± 0.011
same,NP40-soluble protein abundance,[1]; concentration: 10mM,1.01 ± 0.035
same,NP40-soluble protein abundance,[2]; concentration: 1mM,1 ± 0.024
same,NP40-soluble protein abundance,[2]; concentration: 2mM,1.02 ± 0.048
same,NP40-soluble protein abundance,[2]; concentration: 4mM,1.01 ± 0.051
same,NP40-soluble protein abundance,[2]; concentration: 6mM,1.07 ± 0.033
same,NP40-soluble protein abundance,[2]; concentration: 8mM,1.06 ± 0.049
same,NP40-soluble protein abundance,[2]; concentration: 10mM,1.09 ± 0.033
same,NP40-soluble protein abundance,[3]; concentration: 1mM,0.986 ± 0.023
same,NP40-soluble protein abundance,[3]; concentration: 2mM,0.983 ± 0.014
same,NP40-soluble protein abundance,[3]; concentration: 4mM,1 ± 0.039
same,NP40-soluble protein abundance,[3]; concentration: 6mM,0.974 ± 0.017
same,NP40-soluble protein abundance,[3]; concentration: 8mM,0.9655 ± 0.0081
same,NP40-soluble protein abundance,[3]; concentration: 10mM,0.992 ± 0.031
same,NP40-soluble protein abundance,[4]; concentration: 1mM,0.996 ± 0.016
same,NP40-soluble protein abundance,[4]; concentration: 2mM,1.01 ± 0.045
same,NP40-soluble protein abundance,[4]; concentration: 4mM,1.03 ± 0.034
same,NP40-soluble protein abundance,[4]; concentration: 6mM,1.05 ± 0.028
same,NP40-soluble protein abundance,[4]; concentration: 8mM,1.05 ± 0.054
same,NP40-soluble protein abundance,[4]; concentration: 10mM,1.06 ± 0.057
same,NP40-soluble protein abundance,[5]; concentration: 1mM,1.02 ± 0.054
same,NP40-soluble protein abundance,[5]; concentration: 2mM,1.09 ± 0.018
same,NP40-soluble protein abundance,[5]; concentration: 4mM,1.07 ± 0.05
same,NP40-soluble protein abundance,[5]; concentration: 6mM,1.06 ± 0.07
same,NP40-soluble protein abundance,[5]; concentration: 8mM,1.06 ± 0.058
same,NP40-soluble protein abundance,[5]; concentration: 10mM,1.1 ± 0.071

# At a glance, part of the list above:
smiles,measurement,setting,value
Nc1ncnc2c1ncn2[C@@H]1O[C@H](COP(=O)(O)OP(=O)(O)NP(=O)(O)O)[C@@H](O)[C@H]1O [adenylyl imidodiphosphate],NP40-soluble protein abundance,[3]; concentration: 8mM,0.9655 ± 0.0081
same,NP40-soluble protein abundance,[3]; concentration: 10mM,0.992 ± 0.031
